Source: PMC12643063, “Mechanistic basis for inhibition of the extended‐spectrum β‐lactamase GES‐1 by enmetazobactam and tazobactam” (Febs Letters, 2025)
These are yes or no findings as the source states them, for the method shown.

Amino acid sequences for entries named in this document (tags omitted). Residues count along the entry.
UniProt Q9KJY7, residues 18-287: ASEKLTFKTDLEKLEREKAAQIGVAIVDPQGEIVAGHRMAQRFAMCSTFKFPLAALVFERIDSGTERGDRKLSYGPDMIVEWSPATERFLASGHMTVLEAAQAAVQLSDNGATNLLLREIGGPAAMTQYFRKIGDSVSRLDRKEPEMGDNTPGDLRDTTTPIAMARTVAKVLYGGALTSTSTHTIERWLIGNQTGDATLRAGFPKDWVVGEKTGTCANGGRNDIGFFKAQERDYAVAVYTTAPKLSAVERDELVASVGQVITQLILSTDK

Molecular target: GES-1 (Guiana extended-spectrum β-lactamase 1) (Klebsiella pneumoniae, UniProt Q9KJY7)
Test: SEC; size exclusion chromatography of purified GES-1; conditions not told for this statement (the purification used HiLoad 16/600 Superdex 75 pg in 20 mM Tris pH 8.0, 150 mM NaCl); both purified

Question: With “GES-1 (Guiana extended-spectrum β-lactamase 1) (from UniProt Q9KJY7 18-287) (enzyme)” as the substance, how does the binding read?
Answer: no binding
